Data as given in patent publication US20180250224A1, “Ophthalmic Drug Compositions” (Oxular Limited, priority 2014, published 2018).
For at least one compound, name, drawing or mass did not settle the structure.

How the values were obtained:
[1] = Drug elution of dexamethasone containing microspheres in PBS (HPLC of supernatant); type: physicochemical; conditions: 37 degrees centigrade, 250 rpm
[2] = Drug elution in PBS over 0-7 days (HPLC of supernatant); type: physicochemical; conditions: 1.2 ml PBS, 37 degrees centigrade, 250 rpm
Procedure: The microspheres of Example 7 and the elongated solid composition of Example 8 were tested for drug release. Samples of the Everolimus containing microspheres, averaging 4.0 mg, were placed in Eppendorf tubes with 1.2 ml of phosphate buffered saline (PBS) and suspended with agitation. Samples of the elongated solid composition containing Everolimus of 12 mm length, averaging 0.51 mg were placed in Eppendorf tubes with 1.2 ml of phosphate buffered saline (PBS) and suspended with agitation. For comparison, samples of the drug used to produce the microspheres, averaging 4.1 mg, were also placed in Eppendorf tubes with 1.2 ml of PBS and suspended with agitation. […] For each time point, 10 microliters of supernatant was placed into 75:25 acetonitrile and water solvent to solubilize the drug and the resultant drug content was analyzed by HPLC. […]
The microspheres of Example 11 and the elongated solid composition of Example 12 were tested for drug release. […] For each time point, 10 microliters of supernatant was placed into 75:25 acetonitrile and water solvent to solubilize the drug and the resultant drug content was analyzed by HPLC. […]
The elongated solid composition of Example 15 was tested for drug release. […] For each time point, 10 microliters of supernatant was placed into 50:50 acetonitrile and methanol solvent to solubilize the drug and the resultant drug content was analyzed by HPLC. […]

| SMILES | time to reach saturation of the fluid [1] | average drug concentration at saturation of the fluid ([1]; 1 hour and each successive time interval to 48 hours) | drug released immediately at 0 days (initial burst release) ([2]; 0 days) | drug released, average of the rest of the time points ([2]; 1, 2, 4 and 7 days) |
| --- | --- | --- | --- | --- |
| C[C@@H]1C[C@H]2[C@@H]3CCC4=CC(=O)C=C[C@]4(C)[C@@]3(F)[C@@H](O)C[C@]2(C)[C@@]1(O)C(=O)CO [dexamethasone] | ≤ 1 h | 32.7 micrograms of drug per milliliter of fluid |  |  |
| CO[C@H]1C[C@@H]2CC[C@@H](C)[C@@](O)(O2)C(=O)C(=O)N2CCCC[C@H]2C(=O)O[C@H]([C@H](C)C[C@@H]2CC[C@@H](O)[C@H](OC)C2)CC(=O)[C@H](C)/C=C(\C)[C@@H](O)[C@@H](OC)C(=O)[C@H](C)C[C@H](C)/C=C/C=C/C=C/1C [sirolimus] |  |  | 4.07 weight % | 0.73 weight % |
